Results deposited as PubChem BioAssay AID1671195 (Yale University, 2021).
The whole screen tested about 22,000 reagents; this is a part drawn at random. About 1,510 of them (6.9%) were called active. 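Active includes knockdowns raising or lowering LDL uptake; positive z-scores mean more uptake, negative mean less.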 Reagent sequences are not shown.

- Screen: 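Regulators of LDL receptor activity judged by labelled LDL uptake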 (primary screen)
- System: human Huh7 hepatoma cells
- Knock-down reagent: siRNA pool against human genes, 18 nM
- Time to read-out: about 2 to 2.5 days of knockdown, then 8 h LDL uptake
- Conditions: DiI-labelled LDL at 30 µg/ml for 8 h, in lipoprotein-deficient serum medium
- Measurement: 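Fluorescent LDL signal imaged in cells, scaled to the plate median, robust z-score for each replicate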
- Reading the numbers: robust z-score: higher = more LDL uptake after knockdown
- Call rule: 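a gene counts as active if at least two replicate z-scores exceed ±2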

no.	target	PubChem SID	robust z-score, replicate 1	robust z-score, replicate 2	robust z-score, replicate 3	activity call
1	PSMD7 (GeneID 5713)	SID442883991	2.01	1.36	2.89	active
2	PIP4K2B (GeneID 8396)	SID442891322	0.0274	1.19	-0.318	inactive
3	PPP1R9A (GeneID 55607)	SID442901605	-1.03	-0.659	-1.09	inactive
4	MYRIP (GeneID 25924)	SID442884880	1.62	1.38	2.45	inactive
5	IFITM2 (GeneID 10581)	SID442896999	0.228	-0.349	-0.887	inactive
6	HHATL (GeneID 57467)	SID442892048	0.0361	0.7	-0.0901	inactive
7	GPR3 (GeneID 2827)	SID442904168	-1.66	-1.38	-1.51	inactive
8	SOCS5 (GeneID 9655)	SID442884386	-2.09	-1.64	-2.38	active
9	ATP13A3-DT (GeneID 401106)	SID442884755	-1.91	-1.98	-1.94	inactive
10	HLA-A (GeneID 3105)	SID442890664	0.387	0.205	0.566	inactive
11	FLJ45684 (retired record) (GeneID 400666)	SID442889641	0.842	0.327	0.421	inactive
12	FLT3 (GeneID 2322)	SID442886071	0.345	1.36	2.13	inactive
13	TMEM41A (GeneID 90407)	SID442889075	0.553	0.821	0.474	inactive
14	PXMP4 (GeneID 11264)	SID442896850	-0.0995	-1.05	0.193	inactive
15	LOC284798 (GeneID 284798)	SID442888890	0.799	0.587	0.549	inactive
16	ESR1 (GeneID 2099)	SID442901990	-0.801	-1.18	-1	inactive
17	LOC441017 (retired record) (GeneID 441017)	SID442890934	0.476	0.314	0.265	inactive
18	ILF3-DT (GeneID 147727)	SID442903552	-1.24	-1.46	-1.28	inactive
19	GUCY2D (GeneID 3000)	SID442903807	-1.93	-0.593	-1.66	inactive
20	NECTIN1 (GeneID 5818)	SID442889502	0.613	1.06	-0.0224	inactive
21	LOC401180 (retired record) (GeneID 401180)	SID442898744	-0.576	-0.542	-0.48	inactive
22	TSC22D2 (GeneID 9819)	SID442886166	1.23	1.29	1.22	inactive
23	CNNM2 (GeneID 54805)	SID442890556	-0.0808	0.745	0.539	inactive
24	LOC387946 (retired record) (GeneID 387946)	SID442903871	-1.57	-1.32	-1.37	inactive
25	RILP (GeneID 83547)	SID442899095	-0.898	0.185	-1.01	inactive
26	ZNF506 (GeneID 440515)	SID442888809	0.731	1.04	0.201	inactive
27	ZNF443 (GeneID 10224)	SID442895260	0.0576	-0.46	-0.0502	inactive
28	LOC401715 (retired record) (GeneID 401715)	SID442904582	-1.58	-1.76	-1.84	inactive
29	PROC (GeneID 5624)	SID442901425	-1.05	-0.894	-0.747	inactive
30	RAG1 (GeneID 5896)	SID442890250	0.509	0.00582	0.814	inactive
31	NOL6 (GeneID 65083)	SID442895091	0.0715	-0.691	0.223	inactive
32	MIER1 (GeneID 57708)	SID442894630	-0.236	0.049	-0.0647	inactive
33	FAM219B (GeneID 57184)	SID442894235	0.0943	-0.00183	-0.216	inactive
34	TMEM9 (GeneID 252839)	SID442895902	-0.27	-0.0641	-0.319	inactive
35	MAGEF1 (GeneID 64110)	SID442896823	-0.741	-0.0221	-0.187	inactive
36	ZNF703 (GeneID 80139)	SID442886818	0.622	1.29	1.25	inactive
37	NLGN2 (GeneID 57555)	SID442902986	-1.17	-1.31	-1.09	inactive
38	PMEPA1 (GeneID 56937)	SID442885259	1.41	0.983	2.4	inactive
39	TRIM17 (GeneID 51127)	SID442900661	-0.692	-0.952	-0.725	inactive
40	LOC285777 (retired record) (GeneID 285777)	SID442892765	-0.0583	0.14	0.298	inactive
41	LOC387632 (retired record) (GeneID 387632)	SID442884888	2.28	1.53	1.61	inactive
42	MYH11 (GeneID 4629)	SID442893614	0.461	-0.353	-0.0195	inactive
43	TMEM184C (GeneID 55751)	SID442899805	-0.253	-1.2	-0.563	inactive
44	SACK1D (GeneID 81610)	SID442890707	0.484	0.0744	0.582	inactive
45	ASGR2 (GeneID 433)	SID442894759	0.0361	-0.301	-0.0282	inactive
46	MNMIP1 (GeneID 79729)	SID442884639	3.17	1.43	1.66	inactive
47	CTAGE1 (GeneID 64693)	SID442890450	0.449	0.208	0.59	inactive
48	SEMA4D (GeneID 10507)	SID442889203	0.53	0.12	1.14	inactive
49	SEMA4D (GeneID 10507)	SID442891312	0.413	0.208	0.283	inactive
50	LOC389936 (retired record) (GeneID 389936)	SID442899185	-0.779	-0.45	-0.536	inactive
51	LOC442651 (retired record) (GeneID 442651)	SID442892147	0.434	0.129	0.0459	inactive
52	EPB41L3 (GeneID 23136)	SID442902316	-0.884	-1.37	-0.894	inactive
53	CIBAR1P1 (GeneID 729073)	SID442893502	0.179	0.405	-0.456	inactive
54	MAMSTR (GeneID 284358)	SID442891554	0.315	0.172	0.33	inactive
55	CDIP1 (GeneID 29965)	SID442898218	-1.93	1.38	-0.87	inactive
56	LOC441761 (retired record) (GeneID 441761)	SID442886423	0.377	1.87	1.25	inactive
57	REXO6P (GeneID 158035)	SID442883399	3.35	3.08	2.63	active
58	PAM (GeneID 5066)	SID442893404	-0.174	-0.335	0.673	inactive
59	S1PR2 (GeneID 9294)	SID442890581	-0.534	1.16	0.567	inactive
60	TYW1B (GeneID 441250)	SID442894000	-0.0618	0.00126	0.017	inactive
61	RETSAT (GeneID 54884)	SID442893283	0.0262	-0.738	0.916	inactive
62	TMEM59L (GeneID 25789)	SID442887852	1.27	-0.207	1.42	inactive
63	RNF175 (GeneID 285533)	SID442899896	-0.621	-0.694	-0.736	inactive
64	PTRH2 (GeneID 51651)	SID442893487	-0.429	0.394	0.169	inactive
65	OCM2 (GeneID 4951)	SID442892822	-0.17	0.172	0.358	inactive
66	NCF4 (GeneID 4689)	SID442898457	-0.234	-0.584	-0.684	inactive
67	NXPH1 (GeneID 30010)	SID442895706	0.618	1.1	-2.31	inactive
68	SNN (GeneID 8303)	SID442891426	1.09	-0.576	0.353	inactive

Looked up above:
For “robust z-score, replicate 1”, ATP13A3-DT (GeneID 401106) [SID442884755] reads -1.91
Under “activity call”, TSC22D2 (GeneID 9819) [SID442886166] is entered as inactive
For “robust z-score, replicate 1”, ZNF443 (GeneID 10224) [SID442895260] has 0.0576
PXMP4 (GeneID 11264) [SID442896850], robust z-score, replicate 2: -1.05
Entry for LOC285777 (retired record) (GeneID 285777) [SID442892765] in “robust z-score, replicate 3”: 0.298
Under “robust z-score, replicate 2”, ESR1 (GeneID 2099) [SID442901990] shows -1.18
